# Data taken from patent US11135219B2, “Methods of treating or preventing Zika virus infection” (priority 2017, dated 2021).
# Some of these results come from one statement about several compounds together. For at least one compound, name, drawing or mass did not settle the structure.
# System: Zika virus strain PRVABC59
# Assay: Inhibition assay: PRVABC59 ZIKV growth in Vero cells (plaque assay, RT-qPCR)
# Type: cell-based
# Details: 10 μM, PRVABC59, 96 hours post-infection
# Protocol: Vero cells were seeded in a 96-well plate with the density of 6000 cells per well. In the initial screening study, the compound (1 μM)-virus (0.1 PFU/cell) mixture in virus growth medium (VGM) [DMEM containing 2% FBS, PS, 20 mM hydroxyethyl piperazine ethane sulfonic acid (HEPES), 1 mM sodium pyruvate, and non-essential amino acids] was added to the cells and incubated for 72 h. In a separate experiment conducted using 12-well plates, the cells were first infected with the virus at 0.1 PFU/cell and following adsorption, the cells were washed twice in PBS and incubated in VGM containing 1 μM concentrations of the drugs. The cell culture media were collected at 72-96 h post-infection and assayed for infectious virus by plaque assay and viral genome copies by quantitative RT-PCR (RT-qPCR). […]
# ZIKV viral RNA was detected using RT-qPCR on a C100 Thermal Cycler and the CFX96 Real-Time system (Bio-Rad). […] ZIKV primers and probe (ZIKF: CCGCTGCCCAACACAAG (SEQ ID NO:1); ZIK-R:[…] (SEQ ID NO:2); PCR Probe: ZIK-P: […] (SEQ ID NO:3)) were used for quantitative RT-PCR (RT-qPCR) with the following parameters: 50° C. […] RNA standard concentrations were determined based on the back calculation with OD values and molecular weights and were generated through serial dilution with R^2>0.95.
compound,measurement,value
"CC[C@H](C)[C@H]1O[C@]2(CC[C@@H]1C)C[C@@H]1C[C@@H](C/C=C(\C)[C@@H](O[C@H]3C[C@H](OC)[C@@H](O[C@H]4C[C@H](OC)[C@@H](O)[C@H](C)O4)[C@H](C)O3)[C@@H](C)/C=C/C=C3\CO[C@@H]4[C@H](O)C(C)=C[C@@H](C(=O)O1)[C@]34O)O2 [IVM, Ivermectin, reference compound]","ZIKV yield inhibition, side-by-side comparison",10- to 20 fold
